PubChem BioAssay AID1224831 | NIAID | 2016
Aim: 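Confirming genome-wide hits on LPS-triggered TNF-alpha induction with independent siRNA sequences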 (follow-up of hits). Cells: human THP-1 B5 monocytic leukaemia cells carrying a TNF promoter luciferase reporter, made macrophage-like with PMA. Reagent: single siRNA against human genes, 50 nM. Duration: about 68 h of knock-down, then 4 h LPS. Conditions: LPS (Salmonella minnesota, TLR-grade) at 10 ng/ml for 4 h; PMA 5 ng/ml present during knock-down. Measured: 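Firefly to renilla luciferase ratio of a TNF promoter reporter after 4 h LPS, scaled to plate median, turned into robust z-score, averaged over replicates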. Direction: TNF reporter z-score: higher = stronger LPS-induced TNF reporter signal; z-score, median over gene's siRNAs: higher = stronger TNF reporter signal across the gene's siRNAs. Call rule: 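Two-sided call: reduced or raised TNF reporter signal counts as active once mean z reaches about -1 or below, or about 1.5 or above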. Calls: active = changed TNF reporter (either direction); inactive = little change.
This is an unselected part of about 3,500 deposited reagents. 731 of them (21%) were called active. 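Active means either lowered or raised reporter signal; the gene-median score did not drive the per-siRNA calls.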

target gene	PubChem SID	TNF reporter z-score, replicate mean	z-score, median over gene's siRNAs	outcome
MLIP	SID315487257	-0.38	-0.365	inactive
MLIP	SID315487258	-0.82	-0.365	inactive
MLIP	SID315487259	0.35	-0.365	inactive
MLIP	SID315487260	-1.55	-0.365	active
MLIP	SID315487261	0.55	-0.365	inactive
MLIP	SID315487262	-0.35	-0.365	inactive
POP4	SID315483510	-0.63	0.28	inactive
POP4	SID315483511	-0.03	0.28	inactive
POP4	SID315483512	-0.37	0.28	inactive
POP4	SID315483513	0.59	0.28	inactive
POP4	SID315483514	1.29	0.28	inactive
POP4	SID315483515	1.01	0.28	inactive
FAM221B	SID315489195	-0.8	-0.76	inactive
FAM221B	SID315489196	-1.14	-0.76	active
FAM221B	SID315489197	-0.66	-0.76	inactive
FAM221B	SID315489198	-0.55	-0.76	inactive
FAM221B	SID315489199	-0.72	-0.76	inactive
FAM221B	SID315489200	-1.43	-0.76	active
SLC25A14	SID315483186	2.34	0.235	active
SLC25A14	SID315483187	-0.99	0.235	inactive
SLC25A14	SID315483188	0.38	0.235	inactive
SLC25A14	SID315483189	1.03	0.235	inactive
SLC25A14	SID315483190	0.09	0.235	inactive
SLC25A14	SID315483191	-0.05	0.235	inactive
DTX1	SID315482274	0.43	0.35	inactive
DTX1	SID315482275	0.09	0.35	inactive
DTX1	SID315482276	0.3	0.35	inactive
DTX1	SID315482277	-0.01	0.35	inactive
DTX1	SID315482278	0.4	0.35	inactive
DTX1	SID315482279	1.88	0.35	active

An excerpt from above, reduced to “TNF reporter z-score, replicate mean”.
MLIP [SID315487260]: -1.55
MLIP [SID315487261]: 0.55
MLIP [SID315487262]: -0.35
POP4 [SID315483510]: -0.63
POP4 [SID315483511]: -0.03
POP4 [SID315483512]: -0.37
POP4 [SID315483513]: 0.59
POP4 [SID315483514]: 1.29
POP4 [SID315483515]: 1.01
FAM221B [SID315489195]: -0.8

The results go on.
target gene	PubChem SID	TNF reporter z-score, replicate mean	z-score, median over gene's siRNAs	outcome
MED10	SID315487161	-0.28	-0.485	inactive
MED10	SID315487162	-0.69	-0.485	inactive
MED10	SID315487163	0.95	-0.485	inactive
MED10	SID315487164	-0.69	-0.485	inactive
MED10	SID315487165	-1.2	-0.485	active
MED10	SID315487166	1.58	-0.485	active
NEXMIF	SID315489063	1.56	0.23	active
NEXMIF	SID315489064	-0.15	0.23	inactive
NEXMIF	SID315489065	1.08	0.23	inactive
NEXMIF	SID315489066	0.19	0.23	inactive
NEXMIF	SID315489067	0.27	0.23	inactive
NEXMIF	SID315489068	0.08	0.23	inactive
UBL5	SID315486201	-1.43	-1.35	active
UBL5	SID315486202	-1.37	-1.35	active
UBL5	SID315486203	-1.9	-1.35	active
UBL5	SID315486204	-0.27	-1.35	inactive
UBL5	SID315486205	-0.96	-1.35	inactive
UBL5	SID315486206	-1.33	-1.35	active
SLC13A3	SID315486291	-0.69	0.28	inactive
SLC13A3	SID315486292	0.64	0.28	inactive
SLC13A3	SID315486293	0.2	0.28	inactive
SLC13A3	SID315486294	-0.95	0.28	inactive
SLC13A3	SID315486295	0.36	0.28	inactive
SLC13A3	SID315486296	2.57	0.28	active
ATAD3A	SID315485817	0.19	-0.25	inactive
ATAD3A	SID315485818	-0.09	-0.25	inactive
ATAD3A	SID315485819	-0.75	-0.25	inactive
ATAD3A	SID315485820	-0.41	-0.25	inactive
ATAD3A	SID315485821	0.62	-0.25	inactive
ATAD3A	SID315485822	-0.56	-0.25	inactive
CCND3	SID315482154	0.56	0.52	inactive
CCND3	SID315482155	0.48	0.52	inactive
CCND3	SID315482156	-0.26	0.52	inactive
CCND3	SID315482157	0.15	0.52	inactive
CCND3	SID315482158	4.43	0.52	active
CCND3	SID315482159	1.41	0.52	inactive
SAMTOR	SID315487896	0.06	0.25	inactive
SAMTOR	SID315487897	0.44	0.25	inactive
SAMTOR	SID315487898	0.48	0.25	inactive
SAMTOR	SID315487899	-0.34	0.25	inactive
SAMTOR	SID315487900	-0.22	0.25	inactive
SAMTOR	SID315487901	0.65	0.25	inactive
SYNJ2BP	SID315485847	-0.62	0.24	inactive
SYNJ2BP	SID315485848	0.38	0.24	inactive
SYNJ2BP	SID315485849	0.39	0.24	inactive
SYNJ2BP	SID315485850	-0.51	0.24	inactive
SYNJ2BP	SID315485851	0.81	0.24	inactive
SYNJ2BP	SID315485852	0.1	0.24	inactive
PITX1	SID315482694	-0.18	-0.445	inactive
PITX1	SID315482695	-0.48	-0.445	inactive
PITX1	SID315482696	-0.41	-0.445	inactive
PITX1	SID315482697	-0.02	-0.445	inactive
PITX1	SID315482698	-0.74	-0.445	inactive
PITX1	SID315482699	-1.51	-0.445	active
